Laboratory results as given in publication PMC9944984.
No constants are given. Whether binding was seen depends on the method and setting. Some entries that bind do so weakly or less than the wild type.

By UniProt entry, the sequences of proteins in these tests, tags left out. Where a name states a change or a piece, a line headed by the entry shows the natural chain unless it says otherwise. Chains listed by the source or under a name are the forms on record and can include a tag or linker. Residues count along the entry.
UniProt Q99816, residues 2-145: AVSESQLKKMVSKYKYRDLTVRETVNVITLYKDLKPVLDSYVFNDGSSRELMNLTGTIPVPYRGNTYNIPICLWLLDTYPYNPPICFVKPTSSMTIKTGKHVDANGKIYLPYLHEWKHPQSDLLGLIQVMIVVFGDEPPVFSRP
hNedd4-1 HECT N-lobe (520-780), null cysteine with F528C, tagged with lanthanide DOTA-M8-SPy at C528 (P46934-4, form named): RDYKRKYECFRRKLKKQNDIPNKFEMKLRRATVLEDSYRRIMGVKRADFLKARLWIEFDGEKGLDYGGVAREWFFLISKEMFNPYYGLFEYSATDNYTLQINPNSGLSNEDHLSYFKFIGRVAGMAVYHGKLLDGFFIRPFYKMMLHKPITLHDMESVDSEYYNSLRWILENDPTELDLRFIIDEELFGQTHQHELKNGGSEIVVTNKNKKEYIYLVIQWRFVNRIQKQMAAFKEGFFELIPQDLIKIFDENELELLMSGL
hNedd4-1 HECT N-lobe (520-780), null cysteine with S720C, tagged with lanthanide DOTA-M8-SPy at C720 (P46934-4, form named): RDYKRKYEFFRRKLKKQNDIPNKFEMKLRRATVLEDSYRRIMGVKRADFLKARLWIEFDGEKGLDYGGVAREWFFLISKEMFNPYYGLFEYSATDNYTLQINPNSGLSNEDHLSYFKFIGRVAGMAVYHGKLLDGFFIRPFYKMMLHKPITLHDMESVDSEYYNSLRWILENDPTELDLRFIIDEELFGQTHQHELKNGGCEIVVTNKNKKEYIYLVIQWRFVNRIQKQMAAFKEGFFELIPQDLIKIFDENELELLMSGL
hNedd4-1 HECT domain (520-900), single cysteine C867, tagged with lanthanide DOTA-M8-SPy at C867 (P46934-4, form named): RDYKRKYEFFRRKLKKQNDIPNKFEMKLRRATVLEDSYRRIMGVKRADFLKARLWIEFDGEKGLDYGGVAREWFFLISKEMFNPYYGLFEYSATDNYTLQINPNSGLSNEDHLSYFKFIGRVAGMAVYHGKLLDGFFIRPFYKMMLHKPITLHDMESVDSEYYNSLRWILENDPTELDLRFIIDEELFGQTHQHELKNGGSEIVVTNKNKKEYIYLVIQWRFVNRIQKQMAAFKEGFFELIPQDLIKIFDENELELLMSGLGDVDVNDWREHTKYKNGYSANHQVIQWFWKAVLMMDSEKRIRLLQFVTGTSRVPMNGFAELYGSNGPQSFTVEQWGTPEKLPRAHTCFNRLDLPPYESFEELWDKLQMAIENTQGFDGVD

Each substance was assayed against Tsg101 UEV domain (residues 2-145), wild type, 15N-labeled (UniProt Q99816) (assay: NMR intermolecular paramagnetic relaxation enhancement (PRE); Gd-DOTA-M8-SPy-tagged HECT (Lu-tagged as diamagnetic reference), 150 uM, mixed with 125 uM 15N-Tsg101 UEV; amide proton R2 difference; 50 mM Tris pH 7.4, 500 mM NaCl, 5% glycerol, 7% 2H2O; 300 K, 600 MHz; both purified).

binding, binds weakly:
hNedd4-1 HECT N-lobe (520-780), null cysteine with F528C, tagged with lanthanide DOTA-M8-SPy at C528 (from UniProt P46934-4 520-780) (domain or fragment)
hNedd4-1 HECT N-lobe (520-780), null cysteine with S720C, tagged with lanthanide DOTA-M8-SPy at C720 (from UniProt P46934-4 520-780) (domain or fragment)
hNedd4-1 HECT domain (520-900), single cysteine C867, tagged with lanthanide DOTA-M8-SPy at C867 (from UniProt P46934-4 520-900) (domain or fragment)
